# From article PMC12040169 (PLOS Biology, 2025)
# The list shows a part of the results.
# Tested on: T1, CTL2-GFP (C. trachomatis L2/434/Bu, GFP-expressing)
# T1 construct: L2/434/Bu, GFP-expressing
# Parameters: species or system HeLa; Intracellular C. trachomatis growth in HeLa cells, bulk GFP fluorescence relative to DMSO
# Conditions: bulk GFP, single well; 28.5 h, 10 µM; inhibitor
row,Structure (SMILES),% of control remaining
1,O=C(O)c1cccc2c1C(=O)N(Cc1ccccc1F)C2 [CBK291172],147.636%
2,COc1ccccc1-c1ncc(OCCN2CCOCC2)nc1N [CBK145072],120.247%
3,Cc1ccccc1-c1nc2ccc(NC(=O)CCC(=O)O)cc2o1 [CBK269904],122.126%
4,Cc1nnc(Sc2cc(C(F)(F)F)ccn2)s1 [CBK115215],106.581%
5,Cc1nn(CC(C)C)c(C)c1CCC(=O)N(C)Cc1c(C)nn(-c2ccccc2)c1C [CBK295301],83.7657%
6,O=C(Nc1ccc(Cl)cc1)N1CCN(c2ccccc2)CC1 [CBK155188],147.528%
7,CCOC(=O)C1(C2CCCCC2)CCN(C(=O)CN2C(=O)CSC2=O)CC1 [CBK160993],93.4088%
8,COc1ccc(C(C)C)cc1-c1cncc(N[C@@H](C)c2ccccc2)n1 [CBK065504],95.6776%
9,N#Cc1ccc(CN2CCCN(S(=O)(=O)c3ccc(C(=O)c4ccccc4)cc3)CC2)cc1 [CBK062962],99.2503%
10,Cc1nc(N2CCCC2)ncc1-c1cc(=O)[nH]c(N2CCCCC2)n1 [CBK288226],127.413%
11,Cc1noc(C)c1S(=O)(=O)Nc1cc(C(F)(F)F)ccc1N1CCOCC1 [CBK062545],118.356%
12,O=C1Cc2c(ccc3ccccc23)C2(CCN(CCCC(F)(F)F)CC2)N1 [CBK039912],176.383%
13,CO[C@H]1CC[C@H](C(=O)NC(c2ccccc2)c2nccn2C)CC1 (some centres unmarked) [CBK283852],108.429%
14,CC(C)(C)c1ccc(S(=O)(=O)N2CCCCC2CCO)cc1[N+](=O)[O-] (centres unmarked) [CBK200067],102.61%
15,COC(=O)C(N)c1c[nH]c2ccccc12 (centres unmarked) [CBK089840],119.165%
16,CN1CCN(C(=O)C2CCCN(S(=O)(=O)c3ccc(Br)cc3)C2)CC1 (centres unmarked) [CBK269006],99.0217%
17,Fc1ccc(CCN2CCC(Oc3cncc(OCC4COc5ccccc5O4)n3)C2)cc1 (centres unmarked) [CBK084383],100.615%
18,CCNC(=O)N1CC2(CCN(CCCC#N)CC2)c2ccccc21 [CBK136970],112.605%
19,CN1CCCc2c1nc1ccc(Br)cc1c2N [CBK009692G],102.461%
20,COc1cc(CNn2c(C)nnc2S)cc(Br)c1OCC(=O)NC(C)(C)C [CBK266575],93.0723%
21,O=C1NC(Nc2ccc(SCCN3CCOCC3)cc2)c2ccccc21 (centres unmarked) [CBK010123],125.811%
22,CC(C)C(=O)NC1CCN(C(=O)CCn2ccc3ccncc32)CC1 [CBK284730],74.4662%
23,CC(Oc1ccc(Cl)cc1Cl)C(=O)Nc1ccc(N2CCN(C)CC2)c(Cl)c1 (centres unmarked) [CBK268563],138.622%
24,O=[N+]([O-])c1ccc(N2CCN(CCO)CC2)cc1NCc1ccc(Cl)cc1 [CBK042201],143.114%
25,O=C(NC(=S)Nc1ccc2[nH]c(=O)[nH]c2c1)c1ccc(OCc2ccccc2)cc1 [CBK268908],134.896%
26,CN(C)C(=O)Cc1ccc(Cn2ccnc(N3CCC(Sc4ccccc4)CC3)c2=O)cc1 [CBK153652],72.3915%

row,Structure (SMILES),% of control remaining
1,CC(=O)c1cccc(NC(=O)CN2CCCC2c2cccs2)c1 (centres unmarked) [CBK305143],128.022%
2,Nc1cc(O)nc(SCCN2CCN(c3ccc(C(F)(F)F)cc3[N+](=O)[O-])CC2)n1 [CBK265225],100%
3,Cc1cn(S(=O)(=O)c2ccc(Br)cc2)cn1 [CBK026488],119.338%
4,COc1ccc(C2(CNC(=O)C(O)COc3ccccc3)CCCC2)cc1OC (centres unmarked) [CBK014053],152.697%
5,COc1ccc(S(=O)(=O)N2Cc3ccccc3CC2C(=O)Nc2sc3c(c2C#N)CCCC3)cc1 (centres unmarked) [CBK266363],89.6915%
6,CCCn1c(SCC(=O)N2CCOCC2)nc2ccc(Br)cc2c1=O [CBK305929],124.017%
7,CCc1nc2ccc(C(=O)N(C)Cc3ccco3)cn2c1N(C)Cc1cccs1 [CBK145552],172.33%
8,Cc1cc(C(=O)Nc2ccc3ncccc3c2)ccc1Cl [CBK159804],112.676%
9,O=C(c1c[nH]c(C(=O)N2CCN(c3ncccn3)CC2)c1)c1ccc(Cl)cc1Cl [CBK107418],108.505%
10,O=C(Nc1cccc(-c2nnn[nH]2)c1)Nc1ccc(Cl)c(Cl)c1 [CBK155454],120.346%
11,CCOC(=O)c1cn(CC2CC2)c2cc(F)c(F)cc2c1=O [CBK304195],113.486%
12,COCCNC(=O)c1ccc(-c2ccc(OC)cc2)nc1N1CCN(C(=O)c2ccco2)CC1 [CBK106010],122.062%
13,CC(C)CC(CO)Nc1ncnc2ccc(S(C)(=O)=O)cc12 (centres unmarked) [CBK304203],112.287%
14,O=C(CN1CCN(c2ccc(C(F)(F)F)cn2)CC1)Nc1ccc2c(c1)OCO2 [CBK074680],119.418%
15,CC(=O)Nc1ccc(S(=O)(=O)NC2(C(F)(F)F)C(=O)Nc3c2c(=O)[nH]c(=S)n3C2CCCCC2)cc1 (centres unmarked) [CBK268683],113.418%
16,O=C(CCSc1ccc(Cl)cc1)Nc1ccc(S(=O)(=O)N2CCOCC2)cc1 [CBK264133],100%
17,O=c1[nH]cc(-c2ccccc2)cc1CNc1ccccc1-n1ccnc1 [CBK284769],87.3886%
18,Cc1cccc(C)c1N1CCN(CCn2c(=S)[nH]c3ccccc3c2=O)CC1 [CBK267998],113.494%
19,CCC(C)NS(=O)(=O)c1ccc(OCC(=O)O)cc1 (centres unmarked) [CBK266521],111.425%
20,O=C(O)c1ccsc1NS(=O)(=O)c1ccc(Oc2ccccc2)cc1 [CBK042259],159.06%
21,O=C(O)c1ccc(Cl)c(-c2ccc(/C=N/Nc3ccc([N+](=O)[O-])cc3)o2)c1 [CBK078331],121.061%
22,CCCCNC(=S)N[C@H]1CC[C@@]2(C3=CC=CC4C=CC=CC34)CCN(C)[C@H]2C1 (some centres unmarked) [CBK003610C],107.996%
23,COc1nccnc1OC1CCN(Cc2ccc([N+](=O)[O-])cc2)CC1 [CBK084245],72.7607%
24,CC(C)C(=O)Nc1c(-c2ccccc2)cnc2ncccc12 [CBK083713],84.8673%
25,CCCCC(Sc1ccc2nnc(-c3ccccn3)n2n1)C(=O)O (centres unmarked) [CBK287622],186.119%
26,COc1ccccc1/C=C(/NC(=O)c1ccc(Cl)cc1Cl)C(=O)O [CBK263998],108.273%

row,Structure (SMILES),% of control remaining
1,O=C(Nc1cccc(Br)c1)/C(=C\c1cccnc1)NC(=O)c1ccccc1 [CBK261450],122.243%
2,Cc1ccc(OCC(=O)NC(=S)Nc2cc(C(=O)O)ccc2C)cc1 [CBK265000],100%
3,CC(=O)c1ccccc1NC(=O)CSCC(=O)O [CBK057752],129.387%
4,O=C(CC(CN1CCN(CCN2CCCC2)CC1)C(=O)O)Nc1ccccc1 (centres unmarked) [CBK286833],120.207%
5,COc1cnc(C(=O)NCc2ccccc2Cl)cc1O [CBK287993],140.478%
6,Cc1ccccc1CSCC(=O)NCCN1CCOCC1 [CBK269207],125.87%
7,O=C(NCc1nnc(-c2cccs2)o1)C1(c2ccccc2)CC1 [CBK284635],129.111%
8,O=C(Nc1c(F)cc(F)cc1OC1CCNCC1)c1cnccn1 [CBK050273T],112.387%
9,CN1C[C@@H](C(=O)NC(C)(C)C)[C@@]2(CCc3ccccc3C(=O)N2)C1 [CBK284796],135.189%
10,CC(C)NC(=O)N[C@H]1CCN2C(=O)N(c3cccc4nsnc34)C(=O)[C@@H]2C1 [CBK289539],86.4894%
11,CS(=O)(=O)c1ccc(CN2C[C@@H]3OCC(=O)N(Cc4ccc(F)cc4)[C@@H]3C2)cc1 [CBK289690],124.035%
12,Cc1cc(C[C@@H]2COC[C@H]2NCc2cccc(Cl)c2)on1 [CBK284885],136.731%
13,Cc1nc2sc3c(c2c2nc(CCC(=O)O)nn12)CC(C)(C)OC3 [CBK269168],134.072%
14,O=S(=O)(Nc1ccccc1O)c1ccc(OC(F)(F)F)cc1 [CBK043512],111.693%
15,CCc1nn2c(C3CCNCC3)ccnc2c1-c1cccs1 [CBK284226],127.878%
16,COc1ncc(-c2nccnc2NCc2ccc(F)cc2)c(OC)n1 [CBK037668],216.225%
17,CCC(=O)N1CCCCC1c1nn(C)cc1-c1onc(C)c1C (centres unmarked) [CBK283411],138.686%
18,CC(C)(C)C(=O)Nc1ccc(F)c(C(=O)N2CCc3[nH]ncc3C2)c1 [CBK305303],140.889%
19,Cc1c(CNC2(c3ccccc3F)CCCC2)c(=O)n(C)c(=O)n1C [CBK282986],147.192%
20,Cc1c(C(=O)N(C)Cc2nc(C(F)(F)F)cs2)nnn1C1CCNCC1 [CBK304315C],118.064%
21,CCNC(=S)N[C@@H]1CC[C@@]2(c3ccc([N+](=O)[O-])cc3)CCN(CCc3ccccc3)[C@H]2C1 [CBK004677],155.994%
22,Cc1ccc(-c2ccccc2)n1-c1ccc(O)c(C(=O)O)c1 [CBK116375],100%
23,COc1ccccc1OCCCN1C(=O)C2(CC(=O)N(C)C2=O)c2cc(F)ccc21 (centres unmarked) [CBK075430],135.913%
24,Nc1nonc1-c1nc2ccccc2n1CC(=O)NCc1ccccc1 [CBK264711],100%
25,NC(=O)C1(N2CCCCC2)CCN(C(=O)CCCC(=O)O)CC1 [CBK286575],106.637%

# Grouped by structure: those above containing a furan ring, fused or not.
row,Structure (SMILES),% of control remaining
7,CCc1nc2ccc(C(=O)N(C)Cc3ccco3)cn2c1N(C)Cc1cccs1 [CBK145552],172.33%
12,COCCNC(=O)c1ccc(-c2ccc(OC)cc2)nc1N1CCN(C(=O)c2ccco2)CC1 [CBK106010],122.062%
21,O=C(O)c1ccc(Cl)c(-c2ccc(/C=N/Nc3ccc([N+](=O)[O-])cc3)o2)c1 [CBK078331],121.061%
